According to patent publication US20150338425A1, “TREATMENT AND PROGNOSIS OF LYMPHANGIOLEIOMYOMATOSIS” (THE BROAD INSTITUTE, INC., priority 2011, published 2015):
For at least one compound, name, drawing or mass did not settle the structure.

System: 621-101 cells
Test: Choline consumption: choline levels measured by LC-MS in culture media
Assay type: cell-based, human
Conditions: patient-derived 621-101 cells, Rapamycin treatment, *q<0.05 (FIG. 4)

Question: Which choline consumption does the source give for `CO[C@H]1C[C@@H]2CC[C@@H](C)[C@@](O)(O2)C(=O)C(=O)N2CCCC[C@H]2C(=O)O[C@H]([C@H](C)C[C@@H]2CC[C@@H](O)[C@H](OC)C2)CC(=O)[C@H](C)/C=C(\C)[C@@H](O)[C@@H](OC)C(=O)[C@H](C)C[C@H](C)/C=C/C=C/C=C/1C` [Rapamycin, rapamycin] here?
Answer: Its choline consumption is “decreased choline consumption”.
